Measured data: PubChem BioAssay AID743121 (NCATS, 2013)
Here is one part, drawn at random, of about 26,000 deposited reagents. In the full data, 167 (0.63%) were called active. 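Calls are per gene from RSA p-values that are not deposited; an individual active-marked siRNA can sensitise only weakly.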 Reagents against one gene are numbered here. Further read-outs or replicates are left out here.

Test: 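Genes whose silencing strengthens cell killing by camptothecin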 (primary screen)
Cell system: MDA-MB-231 cells, a human breast cancer line
Reagent: single siRNA against human genes, 20 nM siRNA (0.8 pmol per well)
Time to read-out: 120 h (drug added 48 h after transfection, read 72 h later)
Conditions: camptothecin 20 nM (about EC30) for 72 h; vehicle 0.1% DMSO in parallel plates
Detection: 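Cell viability by ATP luminescence (CellTiter-Glo) as % of non-targeting siRNA wells, and the log2 ratio of viability without drug over viability with camptothecin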
Scale: log2 vehicle/camptothecin viability: higher = stronger sensitisation to camptothecin; viability with camptothecin: higher = more viable cells
Rule for the call: 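Each gene scored by redundant siRNA activity (RSA) over its individual siRNA ratios; a gene is called active at p < 0.001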

| Gene | siRNA no. | log2 vehicle/camptothecin viability | viability with camptothecin (% of control) | outcome |
| --- | --- | --- | --- | --- |
| FAH (fumarylacetoacetate hydrolase) | 1 | 0.55 | 26.6 | inactive |
| FAH (fumarylacetoacetate hydrolase) | 2 | 0.123 | 36.6 | inactive |
| FAH (fumarylacetoacetate hydrolase) | 3 | -0.0832 | 104 | inactive |
| FAH (fumarylacetoacetate hydrolase) | 4 | -0.501 | 56 | inactive |
| TLR4 (toll like receptor 4) | 1 | 0.541 | 49 | inactive |
| TLR4 (toll like receptor 4) | 2 | -0.123 | 103 | inactive |
| TLR4 (toll like receptor 4) | 3 | -0.118 | 105 | inactive |
| TLR4 (toll like receptor 4) | 4 | -0.0386 | 62.6 | inactive |
| CSNK1G1 (casein kinase 1 gamma 1) | 1 | -0.207 | 70.7 | inactive |
| CSNK1G1 (casein kinase 1 gamma 1) | 2 | -0.197 | 102 | inactive |
| CSNK1G1 (casein kinase 1 gamma 1) | 3 | -0.0949 | 87.8 | inactive |
| CSNK1G1 (casein kinase 1 gamma 1) | 4 | 0.275 | 52.9 | inactive |
| IDO1 (indoleamine 2,3-dioxygenase 1) | 1 | 0.76 | 49 | inactive |
| IDO1 (indoleamine 2,3-dioxygenase 1) | 2 | -0.12 | 73.2 | inactive |
| IDO1 (indoleamine 2,3-dioxygenase 1) | 3 | -0.23 | 88.5 | inactive |
| IDO1 (indoleamine 2,3-dioxygenase 1) | 4 | -0.42 | 34.4 | inactive |
| MYB (MYB proto-oncogene, transcription factor) | 1 | -0.3 | 98.1 | inactive |
| MYB (MYB proto-oncogene, transcription factor) | 2 | -0.14 | 92.4 | inactive |
| MYB (MYB proto-oncogene, transcription factor) | 3 | -0.272 | 87.7 | inactive |
| MYB (MYB proto-oncogene, transcription factor) | 4 | -0.396 | 63.2 | inactive |
| MESP1 (mesoderm posterior bHLH transcription factor 1) | 1 | -0.281 | 70.4 | inactive |
| MESP1 (mesoderm posterior bHLH transcription factor 1) | 2 | 0.0576 | 55.7 | inactive |
| MESP1 (mesoderm posterior bHLH transcription factor 1) | 3 | 0.0229 | 119 | inactive |
| CACNG5 (calcium voltage-gated channel auxiliary subunit gamma 5) | 1 | 0.47 | 36 | inactive |
| CACNG5 (calcium voltage-gated channel auxiliary subunit gamma 5) | 2 | -0.142 | 113 | inactive |
| CACNG5 (calcium voltage-gated channel auxiliary subunit gamma 5) | 3 | -0.181 | 83 | inactive |
| CACNG5 (calcium voltage-gated channel auxiliary subunit gamma 5) | 4 | 0.493 | 49.8 | inactive |
| GTF2H4 (general transcription factor IIH subunit 4) | 1 | -0.458 | 60.4 | inactive |
| GTF2H4 (general transcription factor IIH subunit 4) | 2 | -0.387 | 74.1 | inactive |
| GTF2H4 (general transcription factor IIH subunit 4) | 3 | 0.00441 | 100 | inactive |
| GTF2H4 (general transcription factor IIH subunit 4) | 4 | 0.855 | 17.4 | inactive |
| PSKH2 (protein serine kinase H2) | 1 | 0.0573 | 87.5 | inactive |
| PSKH2 (protein serine kinase H2) | 2 | -0.157 | 85.4 | inactive |
| PSKH2 (protein serine kinase H2) | 3 | 0.387 | 32.5 | inactive |
| PSKH2 (protein serine kinase H2) | 4 | -0.167 | 75.9 | inactive |
| ELK4 (ETS transcription factor ELK4) | 1 | 0.314 | 27.8 | inactive |
| ELK4 (ETS transcription factor ELK4) | 2 | -0.0763 | 101 | inactive |
| ELK4 (ETS transcription factor ELK4) | 3 | 0.0611 | 95.2 | inactive |
| ELK4 (ETS transcription factor ELK4) | 4 | -0.337 | 26.1 | inactive |
| E2F3 (E2F transcription factor 3) | 1 | -0.0676 | 96.8 | inactive |
| E2F3 (E2F transcription factor 3) | 2 | -0.0447 | 91.9 | inactive |
| E2F3 (E2F transcription factor 3) | 3 | 0.0531 | 39.5 | inactive |
| E2F3 (E2F transcription factor 3) | 4 | -0.0638 | 93.3 | inactive |
| ITSN2 (intersectin 2) | 1 | -0.0894 | 106 | inactive |
| ITSN2 (intersectin 2) | 2 | 0.359 | 44.9 | inactive |
| ITSN2 (intersectin 2) | 3 | -0.19 | 67.1 | inactive |
| ITSN2 (intersectin 2) | 4 | 0.108 | 33.9 | inactive |
| OR10AD1 (olfactory receptor family 10 subfamily AD member 1) | 1 | -0.115 | 72.4 | inactive |
| OR10AD1 (olfactory receptor family 10 subfamily AD member 1) | 2 | -0.319 | 77.7 | inactive |
| OR10AD1 (olfactory receptor family 10 subfamily AD member 1) | 3 | -0.622 | 78.1 | inactive |
| OR10AD1 (olfactory receptor family 10 subfamily AD member 1) | 4 | -0.316 | 64.2 | inactive |
| DMC1 (DNA meiotic recombinase 1) | 1 | -0.178 | 131 | inactive |
| DMC1 (DNA meiotic recombinase 1) | 2 | 0.0639 | 85.5 | inactive |
| DMC1 (DNA meiotic recombinase 1) | 3 | -0.0496 | 76.6 | inactive |
| DMC1 (DNA meiotic recombinase 1) | 4 | -0.0199 | 89.6 | inactive |
| KLK9 (kallikrein related peptidase 9) | 1 | -0.182 | 33.8 | inactive |
| KLK9 (kallikrein related peptidase 9) | 2 | -0.282 | 99 | inactive |
| KLK9 (kallikrein related peptidase 9) | 3 | -0.085 | 105 | inactive |
| AP2B1 (adaptor related protein complex 2 subunit beta 1) | 1 | -0.593 | 58.5 | inactive |
| AP2B1 (adaptor related protein complex 2 subunit beta 1) | 2 | -0.284 | 54.5 | inactive |
| AP2B1 (adaptor related protein complex 2 subunit beta 1) | 3 | -0.359 | 91.3 | inactive |
| AP2B1 (adaptor related protein complex 2 subunit beta 1) | 4 | -0.00932 | 101 | inactive |
| HTRA2 (HtrA serine peptidase 2) | 1 | 0.419 | 48.2 | inactive |
| HTRA2 (HtrA serine peptidase 2) | 2 | -0.245 | 78.4 | inactive |
| HTRA2 (HtrA serine peptidase 2) | 3 | 0.267 | 65.6 | inactive |
| HTRA2 (HtrA serine peptidase 2) | 4 | -0.472 | 98.5 | inactive |
| PHF11 (PHD finger protein 11) | 1 | -0.428 | 95.8 | inactive |
| PHF11 (PHD finger protein 11) | 2 | 0.102 | 80.9 | inactive |
| PHF11 (PHD finger protein 11) | 3 | -0.276 | 94.1 | inactive |
| PHF11 (PHD finger protein 11) | 4 | -0.578 | 57.2 | inactive |
| SENP1 (SUMO specific peptidase 1) | 1 | 0.0197 | 99.8 | inactive |
| SENP1 (SUMO specific peptidase 1) | 2 | 0.617 | 43.2 | inactive |
| SENP1 (SUMO specific peptidase 1) | 3 | -0.433 | 33.1 | inactive |
| SENP1 (SUMO specific peptidase 1) | 4 | 0.318 | 54.6 | inactive |
| PLXNB3 (plexin B3) | 1 | -0.307 | 80.2 | inactive |
| PLXNB3 (plexin B3) | 2 | -0.14 | 80.4 | inactive |
| PLXNB3 (plexin B3) | 3 | -0.375 | 17.1 | inactive |
| PLXNB3 (plexin B3) | 4 | 0.205 | 40.8 | inactive |
| TRIM38 (tripartite motif containing 38) | 1 | -0.15 | 118 | inactive |
| TRIM38 (tripartite motif containing 38) | 2 | -0.231 | 123 | inactive |
| TRIM38 (tripartite motif containing 38) | 3 | 0.00198 | 76.7 | inactive |
| TRIM38 (tripartite motif containing 38) | 4 | 0.233 | 69.1 | inactive |
| PPT1 (palmitoyl-protein thioesterase 1) | 1 | -0.369 | 76.4 | inactive |
| PPT1 (palmitoyl-protein thioesterase 1) | 2 | 0.0334 | 88.9 | inactive |
| PPT1 (palmitoyl-protein thioesterase 1) | 3 | -0.0929 | 106 | inactive |
| PPT1 (palmitoyl-protein thioesterase 1) | 4 | -0.211 | 59.3 | inactive |
| KAT5 (lysine acetyltransferase 5) | 1 | -0.389 | 65.1 | inactive |
| KAT5 (lysine acetyltransferase 5) | 2 | -0.602 | 86.1 | inactive |
| KAT5 (lysine acetyltransferase 5) | 3 | -0.419 | 60.1 | inactive |

Sorted by “log2 vehicle/camptothecin viability” (lowest first): some entries from above
| Gene | siRNA no. | log2 vehicle/camptothecin viability | viability with camptothecin (% of control) | outcome |
| --- | --- | --- | --- | --- |
| GTF2H4 (general transcription factor IIH subunit 4) | 1 | -0.458 | 60.4 | inactive |
| MYB (MYB proto-oncogene, transcription factor) | 4 | -0.396 | 63.2 | inactive |
| GTF2H4 (general transcription factor IIH subunit 4) | 2 | -0.387 | 74.1 | inactive |
| MESP1 (mesoderm posterior bHLH transcription factor 1) | 1 | -0.281 | 70.4 | inactive |
| CACNG5 (calcium voltage-gated channel auxiliary subunit gamma 5) | 3 | -0.181 | 83 | inactive |
| CACNG5 (calcium voltage-gated channel auxiliary subunit gamma 5) | 2 | -0.142 | 113 | inactive |
| GTF2H4 (general transcription factor IIH subunit 4) | 3 | 0.00441 | 100 | inactive |
| MESP1 (mesoderm posterior bHLH transcription factor 1) | 3 | 0.0229 | 119 | inactive |
| MESP1 (mesoderm posterior bHLH transcription factor 1) | 2 | 0.0576 | 55.7 | inactive |
| CACNG5 (calcium voltage-gated channel auxiliary subunit gamma 5) | 1 | 0.47 | 36 | inactive |
| CACNG5 (calcium voltage-gated channel auxiliary subunit gamma 5) | 4 | 0.493 | 49.8 | inactive |
